Assay in all cases: client partitioning into phase-separated droplets
The target of assay [1] is T1, full-length ZO2 with C-terminal mEGFP, Q9UDY2.
T1 chain: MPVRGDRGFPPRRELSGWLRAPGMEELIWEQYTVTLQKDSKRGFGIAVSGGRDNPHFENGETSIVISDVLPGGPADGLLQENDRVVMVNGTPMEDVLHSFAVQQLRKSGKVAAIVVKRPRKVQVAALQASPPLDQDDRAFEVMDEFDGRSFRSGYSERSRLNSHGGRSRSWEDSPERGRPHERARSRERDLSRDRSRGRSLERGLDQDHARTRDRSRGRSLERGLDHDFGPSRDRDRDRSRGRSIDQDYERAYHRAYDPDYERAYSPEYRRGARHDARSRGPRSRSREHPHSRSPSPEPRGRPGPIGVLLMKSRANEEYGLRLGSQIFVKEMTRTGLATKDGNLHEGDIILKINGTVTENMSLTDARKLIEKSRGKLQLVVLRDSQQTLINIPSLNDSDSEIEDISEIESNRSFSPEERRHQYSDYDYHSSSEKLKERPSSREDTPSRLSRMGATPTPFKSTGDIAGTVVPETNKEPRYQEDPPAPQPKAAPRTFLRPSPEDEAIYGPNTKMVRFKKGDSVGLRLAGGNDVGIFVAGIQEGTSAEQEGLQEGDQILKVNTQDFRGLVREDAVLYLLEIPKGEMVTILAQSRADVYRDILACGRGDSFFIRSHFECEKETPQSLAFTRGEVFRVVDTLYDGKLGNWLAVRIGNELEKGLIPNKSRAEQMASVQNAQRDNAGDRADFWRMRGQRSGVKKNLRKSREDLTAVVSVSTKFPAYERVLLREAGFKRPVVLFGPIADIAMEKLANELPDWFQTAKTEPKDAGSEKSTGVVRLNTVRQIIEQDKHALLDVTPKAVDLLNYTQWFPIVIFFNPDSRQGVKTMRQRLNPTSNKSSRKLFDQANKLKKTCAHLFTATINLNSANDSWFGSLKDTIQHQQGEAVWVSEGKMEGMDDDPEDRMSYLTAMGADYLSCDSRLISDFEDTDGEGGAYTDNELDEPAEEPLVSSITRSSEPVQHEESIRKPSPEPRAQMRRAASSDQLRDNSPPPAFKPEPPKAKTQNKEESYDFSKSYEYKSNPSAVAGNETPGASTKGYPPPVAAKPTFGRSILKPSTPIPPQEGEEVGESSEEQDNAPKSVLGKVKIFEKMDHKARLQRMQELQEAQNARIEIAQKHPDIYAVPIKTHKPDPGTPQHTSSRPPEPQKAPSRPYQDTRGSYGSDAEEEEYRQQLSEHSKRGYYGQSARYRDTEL
The settings on record: remark: other sources report otherwise.

The chains behind the UniProt entries cited, without tags or fusion partners.
UniProt Q07157: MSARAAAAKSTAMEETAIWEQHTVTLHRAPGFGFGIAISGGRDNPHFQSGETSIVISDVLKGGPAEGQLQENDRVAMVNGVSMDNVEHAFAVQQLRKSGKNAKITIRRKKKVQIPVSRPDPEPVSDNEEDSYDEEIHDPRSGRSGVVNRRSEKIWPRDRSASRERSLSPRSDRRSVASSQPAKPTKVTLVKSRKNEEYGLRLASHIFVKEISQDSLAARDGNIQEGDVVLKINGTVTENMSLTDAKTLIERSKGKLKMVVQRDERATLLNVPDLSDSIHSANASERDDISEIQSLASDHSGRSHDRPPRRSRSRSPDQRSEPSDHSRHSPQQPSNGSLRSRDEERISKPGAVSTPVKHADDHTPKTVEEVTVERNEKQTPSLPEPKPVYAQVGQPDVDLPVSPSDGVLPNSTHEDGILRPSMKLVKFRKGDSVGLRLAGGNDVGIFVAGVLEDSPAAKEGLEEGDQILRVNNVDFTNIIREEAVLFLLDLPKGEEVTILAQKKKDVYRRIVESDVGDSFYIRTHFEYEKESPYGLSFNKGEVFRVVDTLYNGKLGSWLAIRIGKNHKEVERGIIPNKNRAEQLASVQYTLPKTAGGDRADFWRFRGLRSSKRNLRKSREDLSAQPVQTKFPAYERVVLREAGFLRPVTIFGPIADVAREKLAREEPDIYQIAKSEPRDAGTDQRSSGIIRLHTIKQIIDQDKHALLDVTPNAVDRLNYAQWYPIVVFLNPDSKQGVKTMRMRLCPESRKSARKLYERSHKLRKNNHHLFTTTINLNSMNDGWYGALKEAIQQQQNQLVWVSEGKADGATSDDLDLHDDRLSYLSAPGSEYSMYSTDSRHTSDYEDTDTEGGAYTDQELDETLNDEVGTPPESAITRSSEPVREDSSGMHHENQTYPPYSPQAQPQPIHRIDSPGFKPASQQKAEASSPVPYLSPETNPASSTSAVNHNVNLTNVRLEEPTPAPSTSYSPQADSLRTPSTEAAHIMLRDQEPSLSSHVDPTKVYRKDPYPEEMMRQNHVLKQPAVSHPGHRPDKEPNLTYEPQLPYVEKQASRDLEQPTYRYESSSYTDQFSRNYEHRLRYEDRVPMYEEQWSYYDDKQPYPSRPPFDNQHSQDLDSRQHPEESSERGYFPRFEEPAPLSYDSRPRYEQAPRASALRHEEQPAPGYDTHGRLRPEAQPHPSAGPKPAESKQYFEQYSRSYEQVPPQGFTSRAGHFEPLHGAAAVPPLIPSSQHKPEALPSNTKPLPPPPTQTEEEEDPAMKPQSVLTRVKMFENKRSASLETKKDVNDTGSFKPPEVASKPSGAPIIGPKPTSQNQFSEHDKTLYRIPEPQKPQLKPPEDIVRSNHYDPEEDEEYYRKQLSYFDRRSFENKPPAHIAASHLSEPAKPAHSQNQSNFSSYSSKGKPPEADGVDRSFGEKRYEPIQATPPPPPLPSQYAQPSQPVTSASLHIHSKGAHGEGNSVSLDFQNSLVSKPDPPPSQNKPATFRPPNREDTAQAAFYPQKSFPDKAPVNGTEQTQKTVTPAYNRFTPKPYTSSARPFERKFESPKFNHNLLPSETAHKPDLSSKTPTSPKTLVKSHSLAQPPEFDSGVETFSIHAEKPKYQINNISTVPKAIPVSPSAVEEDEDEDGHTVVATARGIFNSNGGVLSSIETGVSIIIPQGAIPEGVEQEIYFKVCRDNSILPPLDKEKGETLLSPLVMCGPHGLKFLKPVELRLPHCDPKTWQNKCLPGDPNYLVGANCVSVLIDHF

The target in assay [2] is full-length ZO1 with C-terminal mEGFP (UniProt Q07157).
Assay [3] deals with T2, full-length ZO3 with C-terminal mEGFP, O95049.
T2 chain: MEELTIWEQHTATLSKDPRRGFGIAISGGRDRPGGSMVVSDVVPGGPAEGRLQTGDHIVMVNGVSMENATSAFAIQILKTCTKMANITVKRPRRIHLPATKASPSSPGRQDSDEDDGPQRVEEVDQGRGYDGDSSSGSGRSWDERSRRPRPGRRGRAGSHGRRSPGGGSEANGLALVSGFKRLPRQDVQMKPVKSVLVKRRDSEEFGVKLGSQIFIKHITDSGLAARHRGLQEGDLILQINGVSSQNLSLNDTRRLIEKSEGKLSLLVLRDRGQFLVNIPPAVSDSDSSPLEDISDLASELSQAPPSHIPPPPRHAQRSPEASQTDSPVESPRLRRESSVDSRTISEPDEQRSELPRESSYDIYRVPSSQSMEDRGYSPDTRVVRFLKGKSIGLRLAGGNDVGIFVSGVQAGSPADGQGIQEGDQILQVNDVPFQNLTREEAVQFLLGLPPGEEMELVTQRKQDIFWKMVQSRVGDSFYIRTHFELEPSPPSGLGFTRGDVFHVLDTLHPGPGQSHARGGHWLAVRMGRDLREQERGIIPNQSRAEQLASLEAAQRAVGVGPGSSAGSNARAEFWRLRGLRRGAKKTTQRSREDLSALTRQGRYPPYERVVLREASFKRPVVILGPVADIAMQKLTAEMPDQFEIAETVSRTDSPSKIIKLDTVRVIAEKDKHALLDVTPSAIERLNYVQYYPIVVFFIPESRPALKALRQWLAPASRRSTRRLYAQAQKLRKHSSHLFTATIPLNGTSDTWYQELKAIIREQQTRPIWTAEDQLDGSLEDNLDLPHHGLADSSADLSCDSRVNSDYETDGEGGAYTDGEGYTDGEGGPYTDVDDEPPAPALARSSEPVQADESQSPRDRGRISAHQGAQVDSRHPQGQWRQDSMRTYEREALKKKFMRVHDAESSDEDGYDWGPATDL
The settings on record: remark: other sources report otherwise.

These are yes or no findings as the source states them, for the method shown. Some entries that bind do so weakly or less than the wild type. For part of these data: Where a sequence is shown, tags or fusion partners need not be part of it.

B1: mCherry-labelled ZO3 (client), O95049 1-919 (protein)
chain: MEELTIWEQHTATLSKDPRRGFGIAISGGRDRPGGSMVVSDVVPGGPAEGRLQTGDHIVMVNGVSMENATSAFAIQILKTCTKMANITVKRPRRIHLPATKASPSSPGRQDSDEDDGPQRVEEVDQGRGYDGDSSSGSGRSWDERSRRPRPGRRGRAGSHGRRSPGGGSEANGLALVSGFKRLPRQDVQMKPVKSVLVKRRDSEEFGVKLGSQIFIKHITDSGLAARHRGLQEGDLILQINGVSSQNLSLNDTRRLIEKSEGKLSLLVLRDRGQFLVNIPPAVSDSDSSPLEDISDLASELSQAPPSHIPPPPRHAQRSPEASQTDSPVESPRLRRESSVDSRTISEPDEQRSELPRESSYDIYRVPSSQSMEDRGYSPDTRVVRFLKGKSIGLRLAGGNDVGIFVSGVQAGSPADGQGIQEGDQILQVNDVPFQNLTREEAVQFLLGLPPGEEMELVTQRKQDIFWKMVQSRVGDSFYIRTHFELEPSPPSGLGFTRGDVFHVLDTLHPGPGQSHARGGHWLAVRMGRDLREQERGIIPNQSRAEQLASLEAAQRAVGVGPGSSAGSNARAEFWRLRGLRRGAKKTTQRSREDLSALTRQGRYPPYERVVLREASFKRPVVILGPVADIAMQKLTAEMPDQFEIAETVSRTDSPSKIIKLDTVRVIAEKDKHALLDVTPSAIERLNYVQYYPIVVFFIPESRPALKALRQWLAPASRRSTRRLYAQAQKLRKHSSHLFTATIPLNGTSDTWYQELKAIIREQQTRPIWTAEDQLDGSLEDNLDLPHHGLADSSADLSCDSRVNSDYETDGEGGAYTDGEGYTDGEGGPYTDVDDEPPAPALARSSEPVQADESQSPRDRGRISAHQGAQVDSRHPQGQWRQDSMRTYEREALKKKFMRVHDAESSDEDGYDWGPATDL
In the case of B1, the binding entry in assay [1] is listed as “no binding”.

B2: mCherry-labelled ZO2 (client) (protein, UniProt Q9UDY2 1-1190)
chain: MPVRGDRGFPPRRELSGWLRAPGMEELIWEQYTVTLQKDSKRGFGIAVSGGRDNPHFENGETSIVISDVLPGGPADGLLQENDRVVMVNGTPMEDVLHSFAVQQLRKSGKVAAIVVKRPRKVQVAALQASPPLDQDDRAFEVMDEFDGRSFRSGYSERSRLNSHGGRSRSWEDSPERGRPHERARSRERDLSRDRSRGRSLERGLDQDHARTRDRSRGRSLERGLDHDFGPSRDRDRDRSRGRSIDQDYERAYHRAYDPDYERAYSPEYRRGARHDARSRGPRSRSREHPHSRSPSPEPRGRPGPIGVLLMKSRANEEYGLRLGSQIFVKEMTRTGLATKDGNLHEGDIILKINGTVTENMSLTDARKLIEKSRGKLQLVVLRDSQQTLINIPSLNDSDSEIEDISEIESNRSFSPEERRHQYSDYDYHSSSEKLKERPSSREDTPSRLSRMGATPTPFKSTGDIAGTVVPETNKEPRYQEDPPAPQPKAAPRTFLRPSPEDEAIYGPNTKMVRFKKGDSVGLRLAGGNDVGIFVAGIQEGTSAEQEGLQEGDQILKVNTQDFRGLVREDAVLYLLEIPKGEMVTILAQSRADVYRDILACGRGDSFFIRSHFECEKETPQSLAFTRGEVFRVVDTLYDGKLGNWLAVRIGNELEKGLIPNKSRAEQMASVQNAQRDNAGDRADFWRMRGQRSGVKKNLRKSREDLTAVVSVSTKFPAYERVLLREAGFKRPVVLFGPIADIAMEKLANELPDWFQTAKTEPKDAGSEKSTGVVRLNTVRQIIEQDKHALLDVTPKAVDLLNYTQWFPIVIFFNPDSRQGVKTMRQRLNPTSNKSSRKLFDQANKLKKTCAHLFTATINLNSANDSWFGSLKDTIQHQQGEAVWVSEGKMEGMDDDPEDRMSYLTAMGADYLSCDSRLISDFEDTDGEGGAYTDNELDEPAEEPLVSSITRSSEPVQHEESIRKPSPEPRAQMRRAASSDQLRDNSPPPAFKPEPPKAKTQNKEESYDFSKSYEYKSNPSAVAGNETPGASTKGYPPPVAAKPTFGRSILKPSTPIPPQEGEEVGESSEEQDNAPKSVLGKVKIFEKMDHKARLQRMQELQEAQNARIEIAQKHPDIYAVPIKTHKPDPGTPQHTSSRPPEPQKAPSRPYQDTRGSYGSDAEEEEYRQQLSEHSKRGYYGQSARYRDTEL
For B2, in assay [2], the binding entry is “binds”.

B3: mCherry-labelled ZO2 (client), Q9UDY2 1-1190 (protein)
chain: MPVRGDRGFPPRRELSGWLRAPGMEELIWEQYTVTLQKDSKRGFGIAVSGGRDNPHFENGETSIVISDVLPGGPADGLLQENDRVVMVNGTPMEDVLHSFAVQQLRKSGKVAAIVVKRPRKVQVAALQASPPLDQDDRAFEVMDEFDGRSFRSGYSERSRLNSHGGRSRSWEDSPERGRPHERARSRERDLSRDRSRGRSLERGLDQDHARTRDRSRGRSLERGLDHDFGPSRDRDRDRSRGRSIDQDYERAYHRAYDPDYERAYSPEYRRGARHDARSRGPRSRSREHPHSRSPSPEPRGRPGPIGVLLMKSRANEEYGLRLGSQIFVKEMTRTGLATKDGNLHEGDIILKINGTVTENMSLTDARKLIEKSRGKLQLVVLRDSQQTLINIPSLNDSDSEIEDISEIESNRSFSPEERRHQYSDYDYHSSSEKLKERPSSREDTPSRLSRMGATPTPFKSTGDIAGTVVPETNKEPRYQEDPPAPQPKAAPRTFLRPSPEDEAIYGPNTKMVRFKKGDSVGLRLAGGNDVGIFVAGIQEGTSAEQEGLQEGDQILKVNTQDFRGLVREDAVLYLLEIPKGEMVTILAQSRADVYRDILACGRGDSFFIRSHFECEKETPQSLAFTRGEVFRVVDTLYDGKLGNWLAVRIGNELEKGLIPNKSRAEQMASVQNAQRDNAGDRADFWRMRGQRSGVKKNLRKSREDLTAVVSVSTKFPAYERVLLREAGFKRPVVLFGPIADIAMEKLANELPDWFQTAKTEPKDAGSEKSTGVVRLNTVRQIIEQDKHALLDVTPKAVDLLNYTQWFPIVIFFNPDSRQGVKTMRQRLNPTSNKSSRKLFDQANKLKKTCAHLFTATINLNSANDSWFGSLKDTIQHQQGEAVWVSEGKMEGMDDDPEDRMSYLTAMGADYLSCDSRLISDFEDTDGEGGAYTDNELDEPAEEPLVSSITRSSEPVQHEESIRKPSPEPRAQMRRAASSDQLRDNSPPPAFKPEPPKAKTQNKEESYDFSKSYEYKSNPSAVAGNETPGASTKGYPPPVAAKPTFGRSILKPSTPIPPQEGEEVGESSEEQDNAPKSVLGKVKIFEKMDHKARLQRMQELQEAQNARIEIAQKHPDIYAVPIKTHKPDPGTPQHTSSRPPEPQKAPSRPYQDTRGSYGSDAEEEEYRQQLSEHSKRGYYGQSARYRDTEL
In the case of B3, in assay [3], the binding result was “no binding”.

For the origin of these results see article doi:10.1101/589580.
